# From publication PMC7755716
# Molecular target: T1, DtxR (UniProt Q8NP95)
# T1 sequence (looked up, limits assumed): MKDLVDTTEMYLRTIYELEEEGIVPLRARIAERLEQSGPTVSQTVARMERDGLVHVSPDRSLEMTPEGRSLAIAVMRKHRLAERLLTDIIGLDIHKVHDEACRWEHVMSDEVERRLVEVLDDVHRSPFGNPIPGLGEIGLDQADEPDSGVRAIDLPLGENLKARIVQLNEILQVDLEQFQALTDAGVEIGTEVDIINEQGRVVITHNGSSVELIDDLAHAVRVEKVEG
# Experiment: EMSA
# Settings: 150 uM Mn2+, 5 mM Mg2+; 50 mM Tris-HCl pH 7.5, 5 mM MgCl2, 40 mM KCl, 5% glycerol, 1 mM DTT, 150 uM MnCl2; 30 min at room temperature; 200 ng DNA, 0-350 ng DtxR dimer in 10 ul; recombinant protein; label: none (SYBR Green I stain); probe letters rebuilt from the primers and the genome
sequence,measurement,value
"GTTGAGGGCGACGATGCGCTGTTCATCGGAGGAGGATGAAGAGGTGCTTGATTCCGCTGAGGATGAAGAAGATGAGGAAGCGGAGGAGTTTTGGTTTTGAGAGGATTGCGCGCAGGCAGTTACAGCAAGGGTGGTGGCGCCGAGCAGTGTGCCGAGGAATGCGCGCCGGCTAATCTCCATATGCATAGGCAAAAGGTACCCTTGCCTAAATAATTTTGCAAAATCGAAGCGTAGGGGGACGTCGAAAAGCAATGCCTTTTTGGAAGGCGCACGGCGCCGAGGTGCAGCTTTGGGTGAAGAAGTATTTTTCGGCACACGTGTGATTCAGGTCAGCCTTAATGTAATGCTGCTAGAGTGAACTTCCGTGACTGATTTTTCTAGTGCTTCAAATGCTGACGA (double strand) [NCgl1959 regulatory region, C-14G (399 bp)]",binding signal (% of wild-type affinity),40

# Construct, isoform or probe ends are uncertain for at least one entry. The direction of at least one scale is not stated here. Protein sequences can lack the tags named with them.
